# Experimental data reported in PubChem BioAssay AID901 (National Center for Advancing Translational Sciences (NCATS), 2007).
# This is one part of the list. Shown are side measurements of this screen, not its main read-out; they come without a call. Compounds called inactive in the main read-out are mostly missing here. Words in brackets tell the shape of the fitted curve; partial curves, single points and poor fits give uncertain potencies.
# Assay: qHTS Assay for Identifying the Cell-Membrane Permeable IMPase Inhibitors
# Details: CHO-M1 cells, IP1 accumulation, HTRF TR-FRET ratio; measured here: donor channel 620 nm AC50
row,SMILES,AC50
1,Cc1nnsc1C(=O)Nc1ccc(Cl)cc1Cl,"0.2 µM [falling, full curve]"
2,Cc1ccc(C)c(N(C)C(=O)Cc2c(C(=O)O)[nH]c3ccc(Cl)cc23)c1,"0.00316 µM [falling, full curve, poor fit]"
3,CN1C(=O)CC(N2CCN(CC(N)=O)CC2)C1=O (stereo not drawn),"0.794 µM [rising, full curve]"
4,N#CC(c1cccc(Cl)c1)c1ccc2c(C(F)(F)F)cc(C(F)(F)F)nc2n1 (stereo not drawn),"20 µM [falling, partial curve, poor fit]"
5,CCCC12CN3CC(CCC)(CN(C1)C3C(O)C(O)C(O)CO)C2=O (stereo not drawn),"3.16 µM [rising, single point]"
6,Cc1ccc(S(=O)(=O)N(C)CC(=O)Nc2nc3ccccc3s2)cc1,"35.5 µM [falling, single point]"
7,O=C1CC(N2CCN(c3ccccc3F)CC2)C(=O)N1c1ccc2c(c1)OCCO2 (stereo not drawn),"0.794 µM [falling, full curve, poor fit]"
8,Cc1cnc(C(=O)Nc2nnc(C(C)C)s2)cn1,"31.6 µM [falling, single point]"
9,COc1ccc(S(=O)(=O)N(CCCN2CCOCC2)Cc2ccc(OC)c(OC)c2)cc1,"0.126 µM [falling, full curve]"
10,CC(=O)c1sc(NC(=O)C(C)C)nc1C,"12.6 µM [rising, partial curve]"
11,Nc1c(C(=O)NCc2ccc(Cl)cc2)sc2nc(-c3ccc(F)cc3)ccc12,"0.01 µM [rising, full curve]"
12,Cc1ccc(-c2cc(C(=O)Nc3ccccc3C)c3ccccc3n2)o1,"0.2 µM [rising, single point]"
13,CC1CC(=O)c2cnc(N)nc2C1 (stereo not drawn),"3.16 µM [falling, single point]"
14,CCCN(CCC)C(=O)CSc1nc2ccsc2c(=O)n1NC(=O)c1ccccc1,"0.0126 µM [rising, full curve, poor fit]"
15,CN1CCN(CC(=O)Nc2ccc(Oc3ccccc3)cc2)CC1,"6.31 µM [falling, full curve]"
16,COc1cccc(NC(=O)N[C@@H](Cc2ccccc2)C(=O)O)c1,"1 µM [falling, single point]"
17,Cn1c2c(c(=O)n(C)c1=O)C(NC(=O)c1cccs1)(C(F)(F)F)C(=O)N2 (stereo not drawn),"0.0794 µM [falling, full curve, poor fit]"
18,COc1cc(SC)ccc1C(=O)NCCOc1ccc(Cl)cc1,"10 µM [rising, partial curve]"
19,O=c1c2c(-c3cccs3)csc2[nH]c(=S)n1-c1ccccc1,"12.6 µM [rising, partial curve]"
20,C=CCn1c(CNc2ccccc2)nnc1SCC(=O)N/N=C/c1ccc(O)cc1O,"25.1 µM [falling, partial curve, poor fit]"
21,COc1ccc(C(C#N)N2CCOCC2)cc1 (stereo not drawn),"6.31 µM [falling, single point]"
22,CCc1ccc2c(c1)C(C)=CC(C)(C)N2,"3.16 µM [rising, partial curve, poor fit]"
23,O=C(O)CCc1ccc(-c2ccc(Cl)cc2)n1CC(=O)O,"0.01 µM [rising, full curve, poor fit]"

row,SMILES,AC50
1,O=c1[nH]c(=S)c2c(n1-c1ccccc1)CCC2,"12.6 µM [rising, partial curve]"
2,CNC(=O)CN(c1ccc(OC)cc1)S(=O)(=O)c1ccc(F)cc1,"0.2 µM [falling, full curve, poor fit]"
3,CCCCn1c(=O)cc(O)c2ccccc21,"0.794 µM [falling, full curve]"
4,CCN(CC)CCOc1cc2c(nn1)Oc1ccccc1N2C,"0.0251 µM [rising, full curve, poor fit]"
5,COc1ccc(-c2nnc(N(C)C(=O)c3cccnc3)s2)cc1,"12.6 µM [falling, single point]"
6,Cn1c(=O)cc(SCC(=O)NCCCN2CCOCC2)c2ccc(Cl)cc21,"25.1 µM [rising, single point]"
7,COC(=O)CNc1n[nH]c(=S)[nH]c1=O,"10 µM [rising, partial curve]"
8,COc1ccc(Br)cc1C(=O)Nc1ccc2oc(-c3cccnc3)nc2c1,"0.355 µM [falling, partial curve, poor fit]"
9,c1ccc2c(c1)Cn1nc(Cc3nc4c(s3)CCCC4)nc1-2,"0.0631 µM [rising, full curve, poor fit]"
10,O=C(NCc1nnc(SCC(=O)N2CCCC2)o1)c1ccccc1F,"2 µM [falling, full curve, poor fit]"
11,O=C(c1ccccc1)c1nn(-c2ccccc2)c2nnc(Cc3ccccc3)c(=O)n12,"1.58 µM [falling, partial curve]"
12,C=C(C)Cn1c(SCC(=O)Nc2ccccc2C)nc2sc3c(c2c1=O)CCCC3,"10 µM [rising, single point]"
13,COc1cccc(-n2c(C)nnc2SCC#N)c1,"3.16 µM [falling, partial curve, poor fit]"
14,COc1cccc(OC)c1C(=O)N1CCN(S(=O)(=O)c2ccc(C)cc2)CC1,"5.62 µM [falling, single point]"
15,O=C(Nc1nnc(SCc2ccccc2)s1)c1ccco1,"0.01 µM [rising, full curve, poor fit]"
16,CC12CC(c3ccccc3O1)C(C(=O)N1CCOCC1)C(=O)N2 (stereo not drawn),"6.31 µM [rising, single point]"
17,CC(=O)Nc1ccc(NC(=O)c2ccccc2N(C)S(C)(=O)=O)cc1,"0.0316 µM [falling, full curve, poor fit]"
18,N#Cc1cc2[nH]c(=O)c(=O)[nH]c2cc1[N+](=O)[O-],"12.6 µM [falling, partial curve, poor fit]"
19,COc1ccccc1N(CC(=O)Nc1ccc2c(c1)OCCO2)S(C)(=O)=O,"0.398 µM [falling, partial curve]"
20,CCC(=O)Nc1c2c(nn1-c1ccc(C)cc1C)CSC2,"5.01 µM [rising, full curve]"
21,O=C(CN(C(=O)CNS(=O)(=O)c1ccccc1)c1ccc2c(c1)OCCO2)NCc1ccco1,"1.58 µM [rising, partial curve]"
22,CC1(C)NC(=O)N(CC(O)COc2ccccc2C(=O)N2CCCCC2)C1=O (stereo not drawn),"0.631 µM [rising, full curve, poor fit]"
23,Cc1ccc(CNC(=O)CCc2nc3ccccc3c(=O)[nH]2)cc1,"0.0501 µM [rising, partial curve, poor fit]"

row,SMILES,AC50
1,CCc1ccc2oc(-c3cc(NC(=O)c4cc(OC)c(OC)c(OC)c4)ccc3O)nc2c1,"12.6 µM [rising, partial curve]"
2,CCCCOC(=O)CSCC(=O)Nc1cc(C)on1,"2.51 µM [rising, partial curve, poor fit]"
3,CCOC(=O)c1cc(C(=O)c2cccs2)n2ccc(C(C)=O)cc12,"31.6 µM [rising, single point]"
4,O=C1NC(c2ccccc2)=C(c2ccc3ccccc3n2)C(c2ccncc2)N1 (stereo not drawn),"3.16 µM [rising, full curve, poor fit]"
5,O=[N+]([O-])c1ccc(NNC(=S)Nc2ccc(F)cc2)cc1,"12.6 µM [falling, single point]"
6,CCCOc1ccc(N2C(=O)CC(N3CCC(c4nncn4CC)CC3)C2=O)cc1 (stereo not drawn),"5.01 µM [falling, single point]"
7,CC1(C)CC(=O)C2=C(C1)N(Cc1ccco1)C(=O)C2(O)C(F)(F)F (stereo not drawn),"25.1 µM [falling, single point]"
8,CN(C1CCCCC1)S(=O)(=O)c1ccc(NC(=O)c2ccco2)cc1,"5.62 µM [falling, full curve, poor fit]"
9,CC(CCc1ccccc1)NC(=O)c1ccco1 (stereo not drawn),"3.98 µM [falling, partial curve]"
10,N#Cc1ccc(-c2nc3ccccc3nc2-c2ccccc2)cc1C#N,"25.1 µM [rising, single point]"
11,O=C(Nc1cccc(C(=O)O)c1)/C(=C\c1ccccc1)NC(=O)c1ccccc1Cl,"5.01 µM [rising, partial curve]"
12,CS(=O)(=O)N(CC(=O)Nc1c(F)cccc1F)c1cccc([N+](=O)[O-])c1,"6.31 µM [rising, full curve]"
13,C=CCn1c(SCc2c(C)noc2C)nc2sc3c(c2c1=O)CCCC3,"31.6 µM [falling, single point]"
14,CCOc1cc2nc(-c3ccc(OC)c(OC)c3)nc(N3CCOCC3)c2cc1OC,"2 µM [falling, single point]"
15,O=C(c1ccc(Cl)c(Cl)c1)N1CCOCC1,"0.158 µM [rising, single point]"
16,O=C(Nc1nccs1)c1ccc(S(=O)(=O)NCc2cccs2)cc1,"3.98 µM [falling, full curve]"
17,COc1ccc2c(c1)[nH]c1c(=O)n(CCCn3ccnc3)cnc12,"0.0794 µM [falling, full curve]"
18,CC(=O)C1C(c2ccccc2)c2c(n[nH]c2C)CC1(C)O (stereo not drawn),"0.794 µM [falling, full curve]"
19,Cc1ccc(Oc2nc(-c3ccccc3)ncc2S(=O)(=O)c2ccc(C)cc2)cc1,"0.0112 µM [falling, full curve]"
20,Cc1ccc(/C=C/c2nnc(-c3ccc(C)cc3)o2)cc1,"0.0251 µM [rising, full curve, poor fit]"
21,c1ccc(CNCC2COc3ccccc3O2)cc1 (stereo not drawn),"15.8 µM [falling, single point]"
22,NC(=O)NC(Cc1ccccc1)C(=O)Nc1ccc(S(N)(=O)=O)cc1 (stereo not drawn),"3.16 µM [falling, partial curve]"

# Another view of some results above.
row	SMILES	AC50
7	CC1(C)CC(=O)C2=C(C1)N(Cc1ccco1)C(=O)C2(O)C(F)(F)F (stereo not drawn)	25.1 µM [falling, single point]
11	O=C(Nc1cccc(C(=O)O)c1)/C(=C\c1ccccc1)NC(=O)c1ccccc1Cl	5.01 µM [rising, partial curve]
21	c1ccc(CNCC2COc3ccccc3O2)cc1 (stereo not drawn)	15.8 µM [falling, single point]
22	NC(=O)NC(Cc1ccccc1)C(=O)Nc1ccc(S(N)(=O)=O)cc1 (stereo not drawn)	3.16 µM [falling, partial curve]
